# Assay results taken from the supplement of paper PMC9135407.
# Where a name gives a salt, the structure may show the parent alone. ± gives the standard deviation of the averaged measurements. The list shows a part of the results. Plates or batches differ in their baseline, so values are only roughly comparable.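 Assay uses culture-activated primary human stellate myofibroblasts; lipid droplet recovery indicates inactivation. Measured: proportion of Hoechst-counted cells over a plate-specific Bodipy cutoff, duplicate wells, DMSO and nortriptyline as per-plate negative and positive controls. A hit scores, control-normalized, above the plate's top-tenth-percentile nortriptyline wells or ranks among its three best wells. Final well concentrations not reported.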
# System: primary human hepatic stellate cells (donor 1)
# Test: percent Bodipy-positive cells; higher = more lipid droplet accumulation
# Settings: 48 h
# [1] = library stock concentration: 10 mM
# [2] = library stock concentration: 1 mM
# [3] = library stock concentration: 3.33 mM
compound,measurement,setting,value
C[C@H]1C(=O)O[C@@H]2CCN3CC=C(COC(=O)[C@](C)(O)[C@]1(C)O)[C@H]23 [Monocrotaline],percent Bodipy-positive cells,,36.1 ± 7.8%
same,percent Bodipy-positive cells,[1],18.7 ± 0.57%
COC1=C[C@@H]2C3=C([C@@H]2C1=O)[C@@H](NC(C)=O)CCc1cc(OC)c(OC)c(OC)c13 [Lumicolchicine gamma],percent Bodipy-positive cells,,29.3 ± 8.9%
C=C(C)[C@@H]1[C@H]2OC(=O)[C@@H]1[C@]1(O)C[C@H]3OC34C(=O)O[C@H]2[C@@]41C.CC(C)(O)[C@@H]1[C@H]2OC(=O)[C@@H]1[C@]1(O)C[C@H]3OC34C(=O)O[C@H]2[C@@]41C (stereo not given in full) [Picrotoxin],percent Bodipy-positive cells,[1],34.2 ± 11%
"CC(=O)OCC1=C(C(=O)O)N2C(=O)[C@@H](N)[C@H]2SC1 [Cephalosporanic acid, 7-amino]",percent Bodipy-positive cells,,23.7 ± 8.7%
CO[C@]12C[C@@H](COC(=O)c3cncc(Br)c3)CN(C)[C@@H]1Cc1cn(C)c3cccc2c13 [Nicergoline],percent Bodipy-positive cells,,38.3 ± 30%
C[N+]12CCC(CC1)C(OC(=O)C(O)(c1ccccc1)c1ccccc1)C2 (stereo not given) [Clidinium bromide],percent Bodipy-positive cells,,8.53 ± 0.098%
same,percent Bodipy-positive cells,[1],6.9 ± 0.38%
OC[C@@H](O)[C@H]1O[C@@H]2O[C@H](C(Cl)(Cl)Cl)O[C@@H]2[C@H]1O,percent Bodipy-positive cells,[1],31.6 ± 7.3%
CCCCC/C=C\C/C=C\C/C=C\C/C=C\CCCC(=O)Nc1cccc(O)c1 [N-(3-hydroxyphenyl)-Arachidonoyl amide],percent Bodipy-positive cells,[2],14.2 ± 1.6%
CC(=O)OC12COC1CC(O)C1(C)C(=O)C(O)C3=C(C)C(O)CC(O)(C(OC(=O)c4ccccc4)C21)C3(C)C (stereo not given) [10-Deacetylbaccatin-III],percent Bodipy-positive cells,[3],10.2 ± 1.3%
same,percent Bodipy-positive cells,[1],22.8 ± 7.2%
"CCCN1CCc2cc(O)cc3c2[C@H]1Cc1ccc(O)c(O)c1-3 [R(-)-2,10,11-Trihydroxy-N-propylnoraporphine hydrobromide]",percent Bodipy-positive cells,[1],39 ± 3%
CN1C(=O)CN=C(c2ccccc2)c2cc([N+](=O)[O-])ccc21 [Nimetazepam],percent Bodipy-positive cells,[1],6.91 ± 4.4%
C/C1=C/C(=O)O[C@@H]2C[C@@H](CC[C@H](C)/C=C\CC1)O[C@@](O)([C@@H]1CSC(=O)N1)C2 [Latrunculin B],percent Bodipy-positive cells,library stock concentration: 12.6 mM,75.8 ± 8.8%
C[C@@]12N[C@@H](Cc3ccccc31)c1ccccc12 [(-)-MK 801 maleate],percent Bodipy-positive cells,[1],21.7 ± 5.3%
C[C@@]12N[C@@H](Cc3ccccc31)c1ccccc12 [(-)-MK-801 hydrogen maleate],percent Bodipy-positive cells,[1],63.7 ± 5%
C[C@@]12N[C@@H](Cc3ccccc31)c1ccccc12 [(-)-MK 801 hydrogen maleate],percent Bodipy-positive cells,,11.3 ± 5.7%
C[C@@]12N[C@@H](Cc3ccccc31)c1ccccc12 [(-)-MK 801 Maleate],percent Bodipy-positive cells,[3],18.9 ± 1.9%
same,percent Bodipy-positive cells,[1],38.5 ± 7.2%
CC(CC(C(N)=O)(c1ccccc1)c1ccccc1)N(C)C (stereo not given) [Aminopentamide],percent Bodipy-positive cells,library stock concentration: 5.1 mM,20.5 ± 6.2%
C#CCN[C@H](C)Cc1ccccc1 [R-(-)-Desmethyldeprenyl hydrochloride],percent Bodipy-positive cells,[1],48 ± 0.72%
CCCN(CCC)[C@@H]1CCc2cccc(O)c2C1 [R-(+)-8-Hydroxy-DPAT hydrobromide],percent Bodipy-positive cells,[1],52.3 ± 16%
NCC(=O)O.[C-]#[O+].[C-]#[O+].[C-]#[O+].[Cl][Ru],percent Bodipy-positive cells,[3],35.2 ± 6%
same,percent Bodipy-positive cells,[1],34.6 ± 7.5%
Cc1cc(C(=O)CN2CCCC2)c(C)n1-c1ccc(F)cc1,percent Bodipy-positive cells,[3],41 ± 12%
same,percent Bodipy-positive cells,[1],57.7 ± 4.6%
C[C@]12Cc3c[nH]nc3C[C@@H]1CC[C@@H]1[C@@H]2CC[C@@]2(C)[C@H]1CC[C@]2(C)O [Stanozolol],percent Bodipy-positive cells,library stock concentration: 6.1 mM,5.55 ± 1.3%
same,percent Bodipy-positive cells,[1],33.1 ± 19%
COc1cc2c(cc1-c1cc3cc4ccoc4cc3oc1=O)OCO2 [Pachyrrhizin],percent Bodipy-positive cells,[1],45.5 ± 10%
Cc1nnc2ccc(-c3cccc(C(F)(F)F)c3)nn12,percent Bodipy-positive cells,[1],14 ± 0.94%
C#C[C@]1(O)C=C[C@H]2[C@@H]3CCC4=CC(=O)CC[C@@H]4[C@H]3CC[C@@]21CC [Gestodene],percent Bodipy-positive cells,[3],6.45 ± 2.7%
same,percent Bodipy-positive cells,[1],15.1 ± 3.8%
CCN1C[C@]2(COC)CC[C@H](O)[C@@]34C5C[C@@H]6[C@@H](OC)C[C@](O)(C(CC23)C14)C5[C@H]6OC(C)=O (stereo not given in full) [Condelphine],percent Bodipy-positive cells,,8.09 ± 0.84%
CN(C)C(=S)SSC(=S)N(C)C [Thiram],percent Bodipy-positive cells,[1],72.4 ± 17%
CCC(C)(C)O,percent Bodipy-positive cells,[1],21.3 ± 4%
Cc1cccc([C@H](C)c2c[nH]cn2)c1C [Dexmedetomidine],percent Bodipy-positive cells,[3],5.65 ± 1.4%
same,percent Bodipy-positive cells,[1],20.2 ± 0.47%
CCCN(CCC)[C@@H]1CCc2c(OC)cccc2[C@@H]1C [(+)-UH 232 maleate],percent Bodipy-positive cells,[1],15.6 ± 2.4%
CC1(C(=O)O)C2CCC(O2)C1(C)C(=O)O (stereo not given) [Cantharidic Acid],percent Bodipy-positive cells,[1],100%
CC(C)(C)NCC(O)c1ccccc1Cl (stereo not given) [Tulobuterol hydrochloride],percent Bodipy-positive cells,[1],34.03 ± 0.079%
CC(C)(C)NCC(O)c1ccccc1Cl (stereo not given) [Tulobuterol],percent Bodipy-positive cells,library stock concentration: 8.8 mM,9.05 ± 2.1%
same,percent Bodipy-positive cells,[1],41.4 ± 3.1%
C=CCN1C[C@H](C(=O)N(CCCN(C)C)C(=O)NCC)C[C@@H]2c3cccc4[nH]cc(c34)C[C@H]21 [Cabergoline],percent Bodipy-positive cells,library stock concentration: 4.4 mM,31.3 ± 1.7%
Oc1ccc2c3c1O[C@H]1c4oc5ccccc5c4C[C@@]4(O)[C@@H](C2)N(CC2CC2)CC[C@]314 [Naltriben mesylate],percent Bodipy-positive cells,library stock concentration: 4.8 mM,29.953 ± 0.024%
"CCCCC/C=C\C/C=C\C/C=C\C/C=C\CCCC(=O)NCCO [Anandamide (18:2,n-6)]",percent Bodipy-positive cells,[2],11.5 ± 9.8%
CCCCC/C=C\C/C=C\C/C=C\C/C=C\CCCC(=O)NCCO [Arachidonoyl Ethanolamide],percent Bodipy-positive cells,[2],11.9 ± 1.8%
"CCCCC/C=C\C/C=C\C/C=C\C/C=C\CCCC(=O)NCCO [Anandamide (20:3,n-6)]",percent Bodipy-positive cells,[2],13.7 ± 11%
"CCCCC/C=C\C/C=C\C/C=C\C/C=C\CCCC(=O)NCCO [Anandamide (22:4,n-6)]",percent Bodipy-positive cells,[2],17.9 ± 18%
"CCCCC/C=C\C/C=C\C/C=C\C/C=C\CCCC(=O)NCCO [Anandamide (20:4, n-6)]",percent Bodipy-positive cells,[2],10.9 ± 1.3%

# Rewritten bar-delimited: entries from further up
compound | measurement | setting | value
CC(=O)OC12COC1CC(O)C1(C)C(=O)C(O)C3=C(C)C(O)CC(O)(C(OC(=O)c4ccccc4)C21)C3(C)C (stereo not given) [10-Deacetylbaccatin-III] | percent Bodipy-positive cells | [3] | 10.2 ± 1.3%
Cc1cc(C(=O)CN2CCCC2)c(C)n1-c1ccc(F)cc1 | percent Bodipy-positive cells | [3] | 41 ± 12%
CCN1C[C@]2(COC)CC[C@H](O)[C@@]34C5C[C@@H]6[C@@H](OC)C[C@](O)(C(CC23)C14)C5[C@H]6OC(C)=O (stereo not given in full) [Condelphine] | percent Bodipy-positive cells |  | 8.09 ± 0.84%
